We go through 21 molecules from article doi:10.1101/2025.07.25.666749.

The target of test [1] is T1, UltraID_ZFP36L1 (UltraID fused to the N-terminus of ZFP36L1) (UniProt Q07352).
T1 sequence: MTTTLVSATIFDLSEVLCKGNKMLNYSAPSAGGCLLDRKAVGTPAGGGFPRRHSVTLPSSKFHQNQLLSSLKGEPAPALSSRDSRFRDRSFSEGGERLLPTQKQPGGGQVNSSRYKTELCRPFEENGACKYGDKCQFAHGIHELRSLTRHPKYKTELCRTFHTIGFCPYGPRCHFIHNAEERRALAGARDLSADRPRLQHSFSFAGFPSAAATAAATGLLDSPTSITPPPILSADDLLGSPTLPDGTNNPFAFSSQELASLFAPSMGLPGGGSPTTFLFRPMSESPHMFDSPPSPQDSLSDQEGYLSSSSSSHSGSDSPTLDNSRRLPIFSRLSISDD
The test is described as follows: proximity labelling.

The target of test [2] is T1, UltraID_ZFP36L1 (UltraID fused to the N-terminus of ZFP36L1). The test is described as follows: proximity labelling. This is another data set of the same source.

Where two headings read alike, the source gives them in different places. Results are given in words; binding and its absence hold for the method and conditions named. In cells and extracts the contact can be indirect. A yes stands for co-enrichment or nearness to the bait. Other partners may have been found. Tags and fused reporters may be left off the sequences shown.

With G3BP1 (from UniProt Q13283 1-466), the binding entry in test [1] is listed as “binds”.
Still for that read-out and setting: for EXOC3 (from UniProt O60645 1-745) the value was “binds”; for AGO2 (from UniProt Q9UKV8 1-859), “binds”; for YWHAZ (from UniProt P63104 1-245), “binds”.
Regarding CNOT2 (from UniProt Q9NZN8 1-540), the binding result in test [1] is reported as “binds”.
Turning to FXR2 (from UniProt P51116 1-673), the binding entry in test [1] is reported as “binds”.
With “SQSTM1 (p62) (from UniProt Q13501 1-440)”, the binding entry in test [1] is recorded as “binds”.
Same read-out and setting: for EXOC4 (from UniProt Q96A65 1-974) the value was “binds”.
Regarding PRRC2A (from UniProt P48634 1-2157), the binding result in test [1] was “binds”.
The same measure, in the same setting: for NUPL1 (from UniProt Q9BVL2 1-599) the value was “binds”; for CNOT7 (from UniProt Q9UIV1 1-285), “binds”.
On the same count and under the same terms, then EXOC1 (from UniProt Q9NV70 1-894), with “binds”; and 4EHP (from UniProt O60573 1-245), with “binds”; and FXR1 (from UniProt P51114 1-621), with “binds”.
The same measure, in the same setting: for YWHAB (from UniProt P31946 1-246) the value was “binds”.
On to DCP2 (from UniProt Q8IU60 1-420), for which the binding entry in test [1] is recorded as “binds”.
As to CNOT3 (from UniProt O75175 1-753), the binding result in test [1] is listed as “binds”.

B1: PAN2 (protein, UniProt Q504Q3 1-1202)
chain: MNFEGLDPGLAEYAPAMHSALDPVLDAHLNPSLLQNVELDPEGVALEALPVQESVHIMEGVYSELHSVVAEVGVPVSVSHFDLHEEMLWVGSHGGHATSFFGPALERYSSFQVNGSDDIRQIQSLENGILFLTKNNLKYMARGGLIIFDYLLDENEDMHSLLLTDSSTLLVGGLQNHIIEIDLNTVQETQKYAVETPGVTIMRQTNRFFFCGHTSGKVSLRDLRTFKVEHEFDAFSGSLSDFDVHGNLLAACGFSSRLTGLACDRFLKVYDLRMMRAITPLQVHVDPAFLRFIPTYTSRLAIISQSGQCQFCEPTGLANPADIFHVNPVGPLLMTFDVSASKQALAFGDSEGCVHLWTDSPEPSFNPYSRETEFALPCLVDSLPPLDWSQDLLPLSLIPVPLTTDTLLSDWPAANSAPAPRRAPPVDAEILRTMKKVGFIGYAPNPRTRLRNQIPYRLKESDSEFDSFSQVTESPVGREEEPHLHMVSKKYRKVTIKYSKLGLEDFDFKHYNKTLFAGLEPHIPNAYCNCMIQVLYFLEPVRCLIQNHLCQKEFCLACELGFLFHMLDLSRGDPCQGNNFLRAFRTIPEASALGLILADSDEASGKGNLARLIQRWNRFILTQLHQDMQELEIPQAYRGAGGSSFCSSGDSVIGQLFSCEMENCSLCRCGSETVRASSTLLFTLSYPDGSKSDKTGKNYDFAQVLKRSICLDQNTQAWCDTCEKYQPTIQTRNIRHLPDILVINCEVNSSKEADFWRMQAEVAFKMAVKKHGGEISKNKEFALADWKELGSPEGVLVCPSIEELKNVWLPFSIRMKMTKNKGLDVCNWTDGDEMQWGPARAEEEHGVYVYDLMATVVHILDSRTGGSLVAHIKVGETYHQRKEGVTHQQWYLFNDFLIEPIDKHEAVQFDMNWKVPAILYYVKRNLNSRYNLNIKNPIEASVLLAEASLARKQRKTHTTFIPLMLNEMPQIGDLVGLDAEFVTLNEEEAELRSDGTKSTIKPSQMSVARITCVRGQGPNEGIPFIDDYISTQEQVVDYLTQYSGIKPGDLDAKISSKHLTTLKSTYLKLRFLIDIGVKFVGHGLQKDFRVINLMVPKDQVLDTVYLFHMPRKRMISLRFLAWYFLDLKIQGETHDSIEDARTALQLYRKYLELSKNGTEPESFHKVLKGLYEKGRKMDWKVPEPEGQTSPKNAAVFSSVLAL
With B1, the binding result in test [2] is listed as “binds”.

B2: PARN (protein, UniProt O95453 1-639)
chain: MEIIRSNFKSNLHKVYQAIEEADFFAIDGEFSGISDGPSVSALTNGFDTPEERYQKLKKHSMDFLLFQFGLCTFKYDYTDSKYITKSFNFYVFPKPFNRSSPDVKFVCQSSSIDFLASQGFDFNKVFRNGIPYLNQEEERQLREQYDEKRSQANGAGALSYVSPNTSKCPVTIPEDQKKFIDQVVEKIEDLLQSEENKNLDLEPCTGFQRKLIYQTLSWKYPKGIHVETLETEKKERYIVISKVDEEERKRREQQKHAKEQEELNDAVGFSRVIHAIANSGKLVIGHNMLLDVMHTVHQFYCPLPADLSEFKEMTTCVFPRLLDTKLMASTQPFKDIINNTSLAELEKRLKETPFNPPKVESAEGFPSYDTASEQLHEAGYDAYITGLCFISMANYLGSFLSPPKIHVSARSKLIEPFFNKLFLMRVMDIPYLNLEGPDLQPKRDHVLHVTFPKEWKTSDLYQLFSAFGNIQISWIDDTSAFVSLSQPEQVKIAVNTSKYAESYRIQTYAEYMGRKQEEKQIKRKWTEDSWKEADSKRLNPQCIPYTLQNHYYRNNSFTAPSTVGKRNLSPSQEEAGLEDGVSGEISDTELEQTDSCAEPLSEGRKKAKKLKRMKKELSPAGSISKNSPATLFEVPDTW
Regarding B2, the binding entry in test [2] is reported as “binds”.

B3: FAM120A (protein, UniProt Q9NZB2 1-1118)
chain: MGVQGFQDYIEKHCPSAVVPVELQKLARGSLVGGGRQRPPQTPLRLLVDADNCLHRLYGGFYTDWVSGGQWNHMLGYLAALAKACFGGNIELFVFFNGALEKARLHEWVKRQGNERQTAQQIVSHVQNKGTPPPKVWFLPPVCMAHCIRLALIRFHVKVAQSIEDHHQEVIGFCRENGFHGLVAYDSDYALCNIPYYFSAHALKLSRNGKSLTTSQYLMHEVAKQLDLNPNRFPIFAALLGNHILPDEDLASFHWSLLGPEHPLASLKVRAHQLVLPPCDVVIKAVADYVRNIQDTSDLDAIAKDVFQHSQSRTDDKVIRFKRAIGYYSATSKPMSFHPPHYLAARPGPFGMPGMVPPHVPPQMLNIPQTSLQAKPVAPQVPSPGGAPGQGPYPYSLSEPAPLTLDTSGKNLTEQNSYSNIPHEGKHTPLYERSSPINPAQSGSPNHVDSAYFPGSSTSSSSDNDEGSGGATNHISGNKIGWEKTGSHSEPQARGDPGDQTKAEGSSTASSGSQLAEGKGSQMGTVQPIPCLLSMPTRNHMDITTPPLPPVAPEVLRVAEHRHKKGLMYPYIFHVLTKGEIKIAVSIEDEANKDLPPAALLYRPVRQYVYGVLFSLAESRKKTERLAFRKNRLPPEFSPVIIKEWAAYKGKSPQTPELVEALAFREWTCPNLKRLWLGKAVEDKNRRMRAFLACMRSDTPAMLNPANVPTHLMVLCCVLRYMVQWPGARILRRQELDAFLAQALSPKLYEPDQLQELKIENLDPRGIQLSALFMSGVDMALFANDACGQPIPWEHCCPWMYFDGKLFQSKLLKASREKTPLIDLCDGQADQAAKVEKMRQSVLEGLSFSRQSHTLPFPPPPALPFYPASAYPRHFGPVPPSQGRGRGFAGVCGFGGPYGETVATGPYRAFRVAAASGHCGAFSGSDSSRTSKSQGGVQPIPSQGGKLEIAGTVVGHWAGSRRGRGGRGPFPLQVVSVGGPARGRPRGVISTPVIRTFGRGGRYYGRGYKNQAAIQGRPPYAASAEEVAKELKSKSGESKSSAMSSDGSLAENGVMAEEKPAPQMNGSTGDARAPSHSESALNNDSKTCNTNPHLNALSTDSACRREAALEAAVLNKEE
In the case of B3, in test [2], the binding result was “binds”.

B4: MOV10 (protein, UniProt Q9HCE1 1-1003)
chain: MPSKFSCRQLREAGQCFESFLVVRGLDMETDRERLRTIYNRDFKISFGTPAPGFSSMLYGMKIANLAYVTKTRVRFFRLDRWADVRFPEKRRMKLGSDISKHHKSLLAKIFYDRAEYLHGKHGVDVEVQGPHEARDGQLLIRLDLNRKEVLTLRLRNGGTQSVTLTHLFPLCRTPQFAFYNEDQELPCPLGPGECYELHVHCKTSFVGYFPATVLWELLGPGESGSEGAGTFYIARFLAAVAHSPLAAQLKPMTPFKRTRITGNPVVTNRIEEGERPDRAKGYDLELSMALGTYYPPPRLRQLLPMLLQGTSIFTAPKEIAEIKAQLETALKWRNYEVKLRLLLHLEELQMEHDIRHYDLESVPMTWDPVDQNPRLLTLEVPGVTESRPSVLRGDHLFALLSSETHQEDPITYKGFVHKVELDRVKLSFSMSLLSRFVDGLTFKVNFTFNRQPLRVQHRALELTGRWLLWPMLFPVAPRDVPLLPSDVKLKLYDRSLESNPEQLQAMRHIVTGTTRPAPYIIFGPPGTGKTVTLVEAIKQVVKHLPKAHILACAPSNSGADLLCQRLRVHLPSSIYRLLAPSRDIRMVPEDIKPCCNWDAKKGEYVFPAKKKLQEYRVLITTLITAGRLVSAQFPIDHFTHIFIDEAGHCMEPESLVAIAGLMEVKETGDPGGQLVLAGDPRQLGPVLRSPLTQKHGLGYSLLERLLTYNSLYKKGPDGYDPQFITKLLRNYRSHPTILDIPNQLYYEGELQACADVVDRERFCRWAGLPRQGFPIIFHGVMGKDEREGNSPSFFNPEEAATVTSYLKLLLAPSSKKGKARLSPRSVGVISPYRKQVEKIRYCITKLDRELRGLDDIKDLKVGSVEEFQGQERSVILISTVRSSQSFVQLDLDFNLGFLKNPKRFNVAVTRAKALLIIVGNPLLLGHDPDWKVFLEFCKENGGYTGCPFPAKLDLQQGQNLLQGLSKLSPSTSGPHSHDYLPQEREGEGGLSLQVEPEWRNEL
As for B4, the binding entry in test [2] is listed as “binds”.
